Experimental data as given in article doi:10.1101/2021.09.03.458272.
These are yes or no findings as the source states them, for the method shown. Binding seen in cells or lysates may run through a third protein. Some results given as binding are weak or reduced against the parent protein; the word gives no strength. Tags and fused reporters may be left off the sequences shown. One block for each binder: values may come before it.

Experiments:
[1] = molecular target: T1, Flag-tagged full-length human CLEC16A (human) (UniProt Q2KHT3); assay: co-IP
T1 sequence: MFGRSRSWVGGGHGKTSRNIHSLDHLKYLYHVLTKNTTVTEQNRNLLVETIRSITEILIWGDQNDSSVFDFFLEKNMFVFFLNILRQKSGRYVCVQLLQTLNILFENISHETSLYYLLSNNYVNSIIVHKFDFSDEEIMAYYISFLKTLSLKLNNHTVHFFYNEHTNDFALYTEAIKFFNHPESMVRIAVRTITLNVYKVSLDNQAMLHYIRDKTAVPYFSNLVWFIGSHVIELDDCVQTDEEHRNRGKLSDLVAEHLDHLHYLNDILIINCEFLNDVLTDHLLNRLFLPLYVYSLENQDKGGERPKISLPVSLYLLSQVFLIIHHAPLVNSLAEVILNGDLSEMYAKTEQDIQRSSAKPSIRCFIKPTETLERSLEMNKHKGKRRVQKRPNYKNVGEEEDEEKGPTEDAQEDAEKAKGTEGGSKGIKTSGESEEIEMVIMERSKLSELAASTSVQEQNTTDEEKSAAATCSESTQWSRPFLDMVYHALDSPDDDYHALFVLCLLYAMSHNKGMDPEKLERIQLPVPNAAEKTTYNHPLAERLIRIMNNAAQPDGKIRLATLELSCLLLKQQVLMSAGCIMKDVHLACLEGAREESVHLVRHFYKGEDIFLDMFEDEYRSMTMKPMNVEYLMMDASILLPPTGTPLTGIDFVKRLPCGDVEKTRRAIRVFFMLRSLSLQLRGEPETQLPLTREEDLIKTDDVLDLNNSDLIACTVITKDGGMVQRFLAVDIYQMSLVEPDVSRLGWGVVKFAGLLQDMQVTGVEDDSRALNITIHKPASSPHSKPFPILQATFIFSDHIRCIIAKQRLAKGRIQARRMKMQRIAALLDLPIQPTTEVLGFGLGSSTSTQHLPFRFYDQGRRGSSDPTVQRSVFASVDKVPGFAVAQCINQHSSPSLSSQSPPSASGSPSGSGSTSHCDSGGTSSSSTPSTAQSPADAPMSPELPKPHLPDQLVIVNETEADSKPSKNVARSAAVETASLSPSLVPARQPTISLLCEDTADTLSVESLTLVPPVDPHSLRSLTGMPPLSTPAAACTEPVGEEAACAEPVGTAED

[2] = molecular target: T2, endogenous RNF41/Nrdp1 (human (endogenous in HEK293T)) (UniProt Q9H4P4); assay: co-IP
T2 sequence: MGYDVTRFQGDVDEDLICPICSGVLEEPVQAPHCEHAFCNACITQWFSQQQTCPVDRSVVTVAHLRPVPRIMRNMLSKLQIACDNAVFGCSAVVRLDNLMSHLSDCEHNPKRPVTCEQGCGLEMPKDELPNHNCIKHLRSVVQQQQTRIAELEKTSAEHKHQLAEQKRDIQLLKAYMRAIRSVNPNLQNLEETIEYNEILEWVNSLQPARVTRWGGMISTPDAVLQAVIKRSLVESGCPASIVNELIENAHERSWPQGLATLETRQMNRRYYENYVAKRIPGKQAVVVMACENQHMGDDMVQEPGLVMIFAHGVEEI

binding [1]: binds
B1: HA-Nrdp1 (pcDNA3.1 3x-HA-Nrdp1) (protein, UniProt Q9H4P4 1-317)
chain: T2 sequence

binding [2]: binds
B2: GFP-USP8 (protein, UniProt P40818 1-1118)
chain: MPAVASVPKELYLSSSLKDLNKKTEVKPEKISTKSYVHSALKIFKTAEECRLDRDEERAYVLYMKYVTVYNLIKKRPDFKQQQDYFHSILGPGNIKKAVEEAERLSESLKLRYEEAEVRKKLEEKDRQEEAQRLQQKRQETGREDGGTLAKGSLENVLDSKDKTQKSNGEKNEKCETKEKGAITAKELYTMMTDKNISLIIMDARRMQDYQDSCILHSLSVPEEAISPGVTASWIEAHLPDDSKDTWKKRGNVEYVVLLDWFSSAKDLQIGTTLRSLKDALFKWESKTVLRNEPLVLEGGYENWLLCYPQYTTNAKVTPPPRRQNEEVSISLDFTYPSLEESIPSKPAAQTPPASIEVDENIELISGQNERMGPLNISTPVEPVAASKSDVSPIIQPVPSIKNVPQIDRTKKPAVKLPEEHRIKSESTNHEQQSPQSGKVIPDRSTKPVVFSPTLMLTDEEKARIHAETALLMEKNKQEKELRERQQEEQKEKLRKEEQEQKAKKKQEAEENEITEKQQKAKEEMEKKESEQAKKEDKETSAKRGKEITGVKRQSKSEHETSDAKKSVEDRGKRCPTPEIQKKSTGDVPHTSVTGDSGSGKPFKIKGQPESGILRTGTFREDTDDTERNKAQREPLTRARSEEMGRIVPGLPSGWAKFLDPITGTFRYYHSPTNTVHMYPPEMAPSSAPPSTPPTHKAKPQIPAERDREPSKLKRSYSSPDITQAIQEEEKRKPTVTPTVNRENKPTCYPKAEISRLSASQIRNLNPVFGGSGPALTGLRNLGNTCYMNSILQCLCNAPHLADYFNRNCYQDDINRSNLLGHKGEVAEEFGIIMKALWTGQYRYISPKDFKITIGKINDQFAGYSQQDSQELLLFLMDGLHEDLNKADNRKRYKEENNDHLDDFKAAEHAWQKHKQLNESIIVALFQGQFKSTVQCLTCHKKSRTFEAFMYLSLPLASTSKCTLQDCLRLFSKEEKLTDNNRFYCSHCRARRDSLKKIEIWKLPPVLLVHLKRFSYDGRWKQKLQTSVDFPLENLDLSQYVIGPKNNLKKYNLFSVSNHYGGLDGGHYTAYCKNAARQRWFKFDDHEVSDISVSSVKSSAAYILFYTSLGPRVTDVAT
